Experimental data reported in paper doi:10.1101/701474.
No constants are given. Whether binding was seen depends on the method and setting. Binding seen in cells or lysates may run through a third protein. A yes stands for co-enrichment or nearness to the bait. Other partners may have been found.

By UniProt entry, the sequences of proteins in these tests, tags left out.
UniProt P14635: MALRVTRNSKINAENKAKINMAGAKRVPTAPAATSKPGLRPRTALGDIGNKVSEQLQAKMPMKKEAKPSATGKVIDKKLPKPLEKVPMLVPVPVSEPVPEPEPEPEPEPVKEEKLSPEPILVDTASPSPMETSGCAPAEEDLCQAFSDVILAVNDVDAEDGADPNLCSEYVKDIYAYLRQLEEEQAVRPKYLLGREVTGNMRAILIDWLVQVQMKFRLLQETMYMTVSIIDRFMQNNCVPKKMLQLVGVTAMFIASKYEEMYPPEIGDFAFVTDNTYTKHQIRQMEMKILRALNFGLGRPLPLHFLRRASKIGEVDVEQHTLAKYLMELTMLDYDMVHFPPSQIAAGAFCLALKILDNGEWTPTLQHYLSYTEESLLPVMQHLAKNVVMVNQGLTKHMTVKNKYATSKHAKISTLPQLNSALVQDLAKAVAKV

Target: Cyclin B1 (RPE Cyclin B1-Venus+/-:Ruby-MAD2+/- cells) (human (endogenous in RPE1)) (UniProt P14635)
Test: affinity purification with mass spectrometry

B1: MAD1 (endogenous, parental RPE1 cells) (protein, UniProt Q9Y6D9 1-718)
chain: MEDLGENTMVLSTLRSLNNFISQRVEGGSGLDISTSAPGSLQMQYQQSMQLEERAEQIRSKSHLIQVEREKMQMELSHKRARVELERAASTSARNYEREVDRNQELLTRIRQLQEREAGAEEKMQEQLERNRQCQQNLDAASKRLREKEDSLAQAGETINALKGRISELQWSVMDQEMRVKRLESEKQELQEQLDLQHKKCQEANQKIQELQASQEARADHEQQIKDLEQKLSLQEQDAAIVKNMKSELVRLPRLERELKQLREESAHLREMRETNGLLQEELEGLQRKLGRQEKMQETLVGLELENERLLAKLQSWERLDQTMGLSIRTPEDLSRFVVELQQRELALKDKNSAVTSSARGLEKARQQLQEELRQVSGQLLEERKKRETHEALARRLQKRVLLLTKERDGMRAILGSYDSELTPAEYSPQLTRRMREAEDMVQKVHSHSAEMEAQLSQALEELGGQKQRADMLEMELKMLKSQSSSAEQSFLFSREEADTLRLKVEELEGERSRLEEEKRMLEAQLERRALQGDYDQSRTKVLHMSLNPTSVARQRLREDHSQLQAECERLRGLLRAMERGGTVPADLEAAAASLPSSKEVAELKKQVESAELKNQRLKEVFQTKIQEFRKACYTLTGYQIDITTENQYRLTSLYAEHPGDCLIFKATSPSGSKMQLLETEFSHTVGELIEVHLRRQDSIPAFLSSLTLELFSRQTVA
binding: binds
